For the assay, the target named is HA-UBA1 (human) (UniProt P22314). Put plainly: affinity purification with mass spectrometry; HA-UBA1 transiently expressed in 293 T cells, AF or DMSO; anti-HA IP, on-beads digestion, label-free quantitative mass spectrometry; two experiments in quadruplicate.

The chains behind the UniProt entries cited, without tags or fusion partners.
UniProt P22314: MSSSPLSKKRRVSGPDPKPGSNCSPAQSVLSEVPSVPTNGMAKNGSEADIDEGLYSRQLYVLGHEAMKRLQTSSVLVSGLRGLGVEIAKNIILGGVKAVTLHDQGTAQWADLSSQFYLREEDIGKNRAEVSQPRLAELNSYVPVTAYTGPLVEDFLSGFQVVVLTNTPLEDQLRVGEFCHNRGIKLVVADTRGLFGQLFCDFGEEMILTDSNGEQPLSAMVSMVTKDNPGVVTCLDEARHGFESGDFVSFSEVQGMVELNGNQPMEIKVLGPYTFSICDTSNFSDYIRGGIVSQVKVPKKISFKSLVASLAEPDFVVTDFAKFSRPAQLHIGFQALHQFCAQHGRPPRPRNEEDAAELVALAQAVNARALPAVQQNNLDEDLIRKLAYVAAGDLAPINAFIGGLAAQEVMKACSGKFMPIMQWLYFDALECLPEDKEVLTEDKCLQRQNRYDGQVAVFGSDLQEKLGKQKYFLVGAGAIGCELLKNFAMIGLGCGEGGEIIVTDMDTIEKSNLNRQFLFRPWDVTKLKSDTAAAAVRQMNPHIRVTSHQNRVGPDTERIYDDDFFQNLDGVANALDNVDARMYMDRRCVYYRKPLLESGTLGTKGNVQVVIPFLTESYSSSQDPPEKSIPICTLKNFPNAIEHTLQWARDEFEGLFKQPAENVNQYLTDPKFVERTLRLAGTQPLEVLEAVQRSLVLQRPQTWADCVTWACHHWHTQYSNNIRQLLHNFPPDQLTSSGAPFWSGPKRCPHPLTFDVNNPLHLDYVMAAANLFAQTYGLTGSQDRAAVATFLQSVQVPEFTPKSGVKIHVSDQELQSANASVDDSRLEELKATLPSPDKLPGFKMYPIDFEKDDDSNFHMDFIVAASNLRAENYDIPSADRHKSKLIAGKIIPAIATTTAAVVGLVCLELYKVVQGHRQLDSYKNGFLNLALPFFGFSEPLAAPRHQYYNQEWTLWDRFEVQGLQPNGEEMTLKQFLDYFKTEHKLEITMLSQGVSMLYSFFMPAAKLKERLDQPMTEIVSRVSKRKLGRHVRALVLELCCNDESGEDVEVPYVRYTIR
UniProt P61086: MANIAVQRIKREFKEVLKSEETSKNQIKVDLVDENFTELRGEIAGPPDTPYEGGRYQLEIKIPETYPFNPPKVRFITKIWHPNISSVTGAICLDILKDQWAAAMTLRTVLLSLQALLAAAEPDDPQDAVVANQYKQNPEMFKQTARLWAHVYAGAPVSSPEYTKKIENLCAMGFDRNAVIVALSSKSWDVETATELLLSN
UniProt P61081: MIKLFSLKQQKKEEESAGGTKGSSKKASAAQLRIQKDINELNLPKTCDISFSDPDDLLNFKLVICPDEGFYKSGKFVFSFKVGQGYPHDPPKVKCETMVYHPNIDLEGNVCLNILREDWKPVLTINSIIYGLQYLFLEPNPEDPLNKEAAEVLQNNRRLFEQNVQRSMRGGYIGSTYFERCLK

Drawing on PMC10412574, this text covers binding for two substances.

No constants are given. Whether binding was seen depends on the method and setting. Binding seen in cells or lysates may run through a third protein. These calls come from enrichment with a bait or labelling near it, and not all partners need be listed.

For “endogenous UBE2K (from UniProt P61086 1-200) (enzyme)”, the binding entry is “binds”.

On to “endogenous UBE2M (from UniProt P61081 1-183) (enzyme)”, for which the binding result was “binds”.
